For at least one compound, name, drawing or mass did not settle the structure.
Target: T1, LFA-1 receptor (Rattus norvegicus, UniProt F1LP44)
T1 construct: endogenous in cells; host or cells: neutrophils and PBMCs from whole blood of male Sprague Dawley rats
T1 sequence (F1LP44 24-1161): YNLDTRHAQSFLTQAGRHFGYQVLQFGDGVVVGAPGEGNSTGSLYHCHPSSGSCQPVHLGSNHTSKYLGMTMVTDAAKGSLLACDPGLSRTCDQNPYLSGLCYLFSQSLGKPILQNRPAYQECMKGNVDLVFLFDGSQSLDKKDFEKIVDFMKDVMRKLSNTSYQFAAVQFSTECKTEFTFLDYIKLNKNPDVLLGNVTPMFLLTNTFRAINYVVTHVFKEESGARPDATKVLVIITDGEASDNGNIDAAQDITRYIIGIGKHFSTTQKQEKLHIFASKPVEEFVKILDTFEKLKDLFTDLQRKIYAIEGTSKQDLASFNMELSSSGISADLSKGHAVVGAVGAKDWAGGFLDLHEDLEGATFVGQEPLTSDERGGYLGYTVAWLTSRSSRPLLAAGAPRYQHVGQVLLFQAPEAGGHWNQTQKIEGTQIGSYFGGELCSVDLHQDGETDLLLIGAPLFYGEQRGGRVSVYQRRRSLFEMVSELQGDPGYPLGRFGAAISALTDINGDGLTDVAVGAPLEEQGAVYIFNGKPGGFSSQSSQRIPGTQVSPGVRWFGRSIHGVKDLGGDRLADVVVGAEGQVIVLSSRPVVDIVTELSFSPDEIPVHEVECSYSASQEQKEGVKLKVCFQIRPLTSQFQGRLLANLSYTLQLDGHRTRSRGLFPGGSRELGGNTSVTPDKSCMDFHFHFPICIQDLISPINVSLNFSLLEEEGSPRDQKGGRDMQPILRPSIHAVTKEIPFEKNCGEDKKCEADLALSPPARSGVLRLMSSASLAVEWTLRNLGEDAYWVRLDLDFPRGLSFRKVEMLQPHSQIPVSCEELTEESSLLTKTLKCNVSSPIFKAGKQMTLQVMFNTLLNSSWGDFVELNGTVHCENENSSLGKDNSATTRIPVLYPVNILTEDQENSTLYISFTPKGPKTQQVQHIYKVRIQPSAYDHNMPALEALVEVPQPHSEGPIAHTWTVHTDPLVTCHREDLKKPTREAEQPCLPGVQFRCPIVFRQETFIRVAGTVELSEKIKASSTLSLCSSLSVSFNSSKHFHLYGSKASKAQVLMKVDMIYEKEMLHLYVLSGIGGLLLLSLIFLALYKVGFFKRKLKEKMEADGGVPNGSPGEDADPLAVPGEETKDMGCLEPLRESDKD
Test: Radioisotopic dilution / competitive leukocyte binding assay
Details: dilutions 1:1, 1:10, 1:100, 1:1000
Protocol: Radioisotopic dilution methods were performed with log-fold serial dilutions at concentrations of 1:1, 1:10, 1:100 and 1:1000 radiolabeled DANBIRT. Rat whole blood was collected and incubated for 10 minutes with [^111In] In-DANBIRT. Leukocyte isolation was performed for neutrophil and PBMC separations post-incubation with radiolabeled DANBIRT (specific activity 625 mCi/pM). Cytospin 2 (Shandon 2,59900002) with double-funnel and white filter (Simport, 930941126) was used for clustered cell differentials identification methods. Cytospin samples were spread in Superfrost Plus slides (VWR, 48311-703) and fixed with […]. Wright-Giemsa horizontal staining protocol was performed according to manufacturer's package insert instructions (Sigma Aldrich, SLBN4704V). Cell morphology, differentials and sample purity were assessed using a light microscope at 40× objective (Olympus BX51).

## C[C@]1(Cc2ccc(Br)cc2)C(=O)N(c2cc(Cl)cc(Cl)c2)C(=O)N1CCCCNC(=O)CN1CCN2CCN3CCN(CC1)CC(=O)[O][111In]([O]C(=O)C2)[O]C(=O)C3 [[^111In] In-DANBIRT]
  log-fold serial dilution concentration at which saturation of binding sites in neutrophils starts: 1:10

— US10744214B2, “Method of diagnosing and/or monitoring therapy of atherosclerosis” (STC.UNM, priority 2015, dated 2020)
